From the supplement of paper PMC4371806
The full ranking holds about 1,600 compounds; the median of “plate-normalized OD600 growth (mean of duplicates)” is about 0.31, and the lowest 2% start at about 0.23. Some of the results follow.

Tested on: Escherichia coli BW25113
Assay: plate-normalized OD600 growth (mean of duplicates) (OD600 (normalized)); higher = more growth (less inhibition)
Details: 10 µM
Experimental: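 E. coli BW25113 in LB (100 µl, 96-well, no shaking) was exposed to 10 µM of each compound (here the ChemBridge subset of a ~30,000-member library) and grown at 37°C for 24 h or 15°C for 48 h, in duplicate. Growth was read as OD600 and the duplicate ODs were normalized across screening plates to correct plate-to-plate variation.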

SMILES	plate-normalized OD600 growth (temperature: 15°C, 48 h)	plate-normalized OD600 growth (temperature: 37°C, 24 h)
CCOC(=O)N1CCN(c2cc(N3CCCCC3)c(F)cc2[N+](=O)[O-])CC1	0.259	0.654
O=C1CCC(C(=O)N2CCN(Cc3ccccc3)CC2)N1 (stereo not drawn)	0.267	0.661
NS(=O)(=O)c1ccc(NC(=O)c2ccccc2Br)cc1	0.242	0.641
CCCOc1ccc(N2C(=O)CC(Nc3ccc(OC)cc3)C2=O)cc1 (stereo not drawn)	0.235	0.593
COc1ccc(-n2cccc2C=O)cc1	0.253	0.613
Ic1ccc(NCc2cn3ccccc3n2)cc1	0.248	0.617
N#C/C(=C\c1ccccc1F)c1nc(-c2cccs2)cs1	0.252	0.662
c1ccc2sc(-c3ccc4c(c3)OCO4)nc2c1	0.241	0.578
c1ccc(Nc2n[nH]nc2-c2ccccc2)cc1	0.239	0.64
CCCCOC(=O)Nc1ccc(I)cc1	0.259	0.618
Clc1ccccc1-c1cn2ccsc2n1	0.246	0.615
O=C1CCCC2=C1C(c1ccc(F)cc1)Nc1ccc3ncccc3c12 (stereo not drawn)	0.248	0.639
c1ccc(C2CCC(N3CCN(Cc4cccnc4)CC3)CC2)cc1 (stereo not drawn)	0.25	0.62
Cc1ccc(C23CC4CC(CC(C(=O)NN)(C4)C2)C3)cc1	0.239	0.607
C=CCSC1=C(C#N)C2(CCCC2)C(C#N)C(=O)N1 (stereo not drawn)	0.243	0.606
Cc1cc(-c2ccccc2)nc2cc(C(N)=O)nn12	0.247	0.614
CC(=O)Nc1cccc(NS(=O)(=O)c2ccc(Cl)cc2)c1	0.263	0.638
O=[N+]([O-])c1ccc(N2CCN(CCO)CC2)c(Cl)c1	0.25	0.61
COc1ccc(C2C(=C(O)c3ccccc3)C(=O)C(=O)N2CCCO)cc1OC (stereo not drawn)	0.243	0.609
COc1ccc(OC)c(C2C(C#N)=C(C)NC3=C2C(=O)CCC3)c1 (stereo not drawn)	0.246	0.629
COc1ccc(CNCCC2CCOC(C)(C)C2)cc1 (stereo not drawn)	0.263	0.65
Cc1ccc(-c2csc(Nc3ccc(F)cc3)n2)cc1C	0.218	0.604
O=C(NCc1ccccc1)c1ccc(Br)c(S(=O)(=O)N2CCOCC2)c1	0.248	0.607

4 compounds picked at random from the list so far, as already listed:
SMILES	plate-normalized OD600 growth (temperature: 15°C, 48 h)	plate-normalized OD600 growth (temperature: 37°C, 24 h)
COc1ccc(CNCCC2CCOC(C)(C)C2)cc1 (stereo not drawn)	0.263	0.65
c1ccc(Nc2n[nH]nc2-c2ccccc2)cc1	0.239	0.64
CCOC(=O)N1CCN(c2cc(N3CCCCC3)c(F)cc2[N+](=O)[O-])CC1	0.259	0.654
N#C/C(=C\c1ccccc1F)c1nc(-c2cccs2)cs1	0.252	0.662

(more compounds)

SMILES	plate-normalized OD600 growth (temperature: 15°C, 48 h)	plate-normalized OD600 growth (temperature: 37°C, 24 h)
O=C(Nc1ccc(Cl)c(Cl)c1)[C@@H]1C2C=CC(C2)[C@@H]1C(=O)O (stereo partly drawn)	0.246	0.607
O=C(Cn1cncn1)c1ccccc1Cl	0.256	0.624
O=C(COc1ccc(Br)cc1)Nc1ccc(F)cc1F	0.254	0.626
CCn1c2ccccc2c2cc(CN3CCC(O)CC3)ccc21	0.248	0.602
COc1ccc2c(c1)nc(NCCO)n2C	0.235	0.624
Brc1ccc(CN2CCN(Cc3ccc4c(c3)OCO4)CC2)s1	0.262	0.639
O=C(NCc1ccccc1)c1cccc(Br)c1	0.253	0.603
O=C(N1CCOCC1)C(O)(c1ccccc1)c1ccccc1	0.282	0.642
CCN(CC)c1ccc(/C=C(\C#N)c2nc3ccccc3s2)cc1	0.249	0.619
CCN(CC)C(=O)C1CCCN(Cc2cccc(Br)c2)C1 (stereo not drawn)	0.244	0.623
O=c1[nH]cnc2nc(N3CCOCC3)[nH]c12	0.27	0.632
CS(=O)(=O)N1CCN(c2ccc([N+](=O)[O-])c(N3CCCC3)c2)CC1	0.253	0.623
C=CCNC(=O)c1ccc(CN2CCc3ccccc3C2)cc1	0.217	0.6
COc1ccc(CN2CCCN(C)CC2)cc1Br	0.229	0.632
COc1ccc(S(=O)(=O)N2CCN(Cc3cccc(F)c3)CC2)cc1	0.245	0.614
COc1ccc(NS(=O)(=O)c2ccc(F)cc2)cc1	0.228	0.65
Cn1ncc(Oc2ccc([N+](=O)[O-])cc2)c(Cl)c1=O	0.251	0.636
Cc1ccccc1CN(C)C1CCN(C)CC1	0.256	0.628
O=C(CCCc1ccccc1)Nc1ccc(C(=O)O)cc1	0.244	0.597
Nc1nc(SCC(=O)N2CCCCC2)nc2sc3c(c12)CCCC3	0.247	0.613
CCOc1cc(CN(C)CCN(C)C)ccc1O	0.244	0.643
COc1cc2c(cc1OC)C(c1cccc([N+](=O)[O-])c1)NC(=O)C2 (stereo not drawn)	0.234	0.608
CCSc1sc(SC#N)cc1SC#N	0.207	0.614

SMILES	plate-normalized OD600 growth (temperature: 15°C, 48 h)	plate-normalized OD600 growth (temperature: 37°C, 24 h)
COc1ccc(C(C)=O)cc1Cc1c(O)nc(SC)[nH]c1=O	0.247	0.629
Cc1cc(C)n(-c2nc(-c3ccc(F)cc3)cs2)n1	0.254	0.625
N#CCCN(CC(=O)O)S(=O)(=O)c1ccccc1	0.247	0.608
COc1ccccc1OCC(=O)NN	0.252	0.619
Cc1ccc2nc(/C(C#N)=C\c3ccc([N+](=O)[O-])o3)[nH]c2c1	0.243	0.603
COc1ccc(C(=O)Nc2ccc(S(=O)(=O)Nc3nc(C)cc(C)n3)cc2)c(OC)c1	0.251	0.616
O=C(O)CCSc1nc2ccc(Br)cc2[nH]1	0.269	0.651
CC1(C)CC(=O)C2=C(C1)Nc1ccccc1NC2c1ccc([N+](=O)[O-])s1 (stereo not drawn)	0.231	0.604
c1ccc(CCN2CCC(N3CCOCC3)CC2)cc1	0.239	0.618
CCc1c(O)nc(SCC(=O)N(CC)CC)n(C2CCCCC2)c1=O	0.23	0.601
CCN(CC)C(=O)C1CCCN(Cc2cccc(C)c2)C1 (stereo not drawn)	0.25	0.609
Cc1ccc(C(=O)O)cc1NC(=O)c1cccs1	0.239	0.612
CC(=O)Nc1ccc(S(=O)(=O)N2CCCC(CO)C2)cc1 (stereo not drawn)	0.29	0.63
Cc1ccc(CN2CCCC(O)C2)c(C)c1 (stereo not drawn)	0.241	0.635
Cc1cc(C)c(S(=O)(=O)N2CCOCC2)c(C)c1	0.259	0.63
CC(=O)c1cc(F)c(N2CCN(c3ccc([N+](=O)[O-])cc3F)CC2)cc1C	0.263	0.632
N#CC1=C(Nc2ccc(Br)cc2)CCC1	0.248	0.604
CN(C)C(N)=NC(N)=Nc1ccccc1	0.25	0.625
Cc1cc(C)n(C(=O)c2ccccc2Br)n1	0.226	0.655
O=C(O)c1ccc(Nc2ncnc3ccccc23)cc1	0.244	0.64
CCCN(CCO)Cc1ccc(F)c(Br)c1	0.268	0.623
O=c1cc[nH]c2ccc([N+](=O)[O-])cc12	0.259	0.616
O=S(=O)(c1cc(Cl)ccc1Cl)N1CCN(c2ccccc2)CC1	0.25	0.595
